In all, about 31,000 sequences went through this assay and about 1,400 (4.5%) were called active.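 The calls were made as follows: active = median seed-adjusted z-score above 1 or below -1; inactive = the rest.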 This is one part of the list.
experiment: Novel Modifiers of Survival Motor Neuron (SMN) Protein: Gene Identification via Genome-wide siRNA Screen; conditions: HEK293T SMN2-luciferase reporter, siRNA knockdown, 72 h; actives lie on both sides;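 also: luminescence tracks full-length SMN protein made from the SMN2 reporter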
In short: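 Genome-wide siRNA screen (10418 genes, 3 siRNAs each, 1 pmol per well) by reverse transfection in HEK293T cells stably carrying an SMN2-luciferase reporter; luminescence after 72 hours, normalized to negative-control siRNA, log10-transformed, MAD-scored.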

**Q.** For GGCUCCUCCUUAGAGUUCATT against CASP6, which median seed-adjusted z-score is on record?
**A.** The median seed-adjusted z-score was inactive: 0.765.

**Q.** For GAACGACACUCAUCACCAATT against CYP2D6, which median seed-adjusted z-score is on record?
**A.** The median seed-adjusted z-score was inactive: -0.0488.

**Q.** Which median seed-adjusted z-score does the source give for GCAUCACGCUCUCGAAGCATT against PTBP1 here?
**A.** Its median seed-adjusted z-score is inactive: 0.578.

**Q.** With GGCCUGUCAUUGUCAUACATT against ABCC12 as the sequence, how does the median seed-adjusted z-score read?
**A.** The median seed-adjusted z-score was inactive: 0.204.

**Q.** Which median seed-adjusted z-score does the source give for CCAGGUGAAAUGUCAACUATT against HERC5 here?
**A.** Its median seed-adjusted z-score is inactive: -0.422.

**Q.** For GAAUUGACAAUCUCAUAGATT against MCCC2, which median seed-adjusted z-score is on record?
**A.** Its median seed-adjusted z-score is inactive: -0.0566.

**Q.** For CCGCUGAUCCAGAUGCUUATT against HERC6, which median seed-adjusted z-score is on record?
**A.** Its median seed-adjusted z-score is inactive: 0.324.

**Q.** For CCUUAGAUACUUUUGGUAATT against PECR, which median seed-adjusted z-score is on record?
**A.** The median seed-adjusted z-score was inactive: -0.347.

**Q.** For GAUGACUACUUAGCUCUAATT against FLJ90650, which median seed-adjusted z-score is on record?
**A.** Its median seed-adjusted z-score is inactive: 0.427.

**Q.** With GACUUGACCGAGCAAUAUATT against RBM4 as the sequence, how does the median seed-adjusted z-score read?
**A.** Its median seed-adjusted z-score is inactive: 0.0148.

**Q.** For GAAAAUUCAACGAGCCAAGTT against ACSM2A, which median seed-adjusted z-score is on record?
**A.** The median seed-adjusted z-score was inactive: -0.178.

**Q.** For CCGUCAGUGAGUUCCAUCATT against PAX3, which median seed-adjusted z-score is on record?
**A.** The median seed-adjusted z-score was inactive: 0.0223.

**Q.** Which median seed-adjusted z-score does the source give for GGAUCUUUCUAAACUGCGATT against DDX50 here?
**A.** The median seed-adjusted z-score was inactive: 0.359.

**Q.** Which median seed-adjusted z-score does the source give for UGACCUUUCCUAUCUAUAATT against MCART6 here?
**A.** Its median seed-adjusted z-score is inactive: 0.714.

**Q.** Which median seed-adjusted z-score does the source give for GUGUCGCGCCCUACUGAAATT against GJC2 here?
**A.** The median seed-adjusted z-score was inactive: 0.

**Q.** With GCCUUCCGAGCAUCACUUUTT against PGK2 as the sequence, how does the median seed-adjusted z-score read?
**A.** The median seed-adjusted z-score was inactive: -0.127.

**Q.** With GGCUUUCAUCAGAACAAGATT against SNAI3 as the sequence, how does the median seed-adjusted z-score read?
**A.** Its median seed-adjusted z-score is inactive: -0.195.

**Q.** Which median seed-adjusted z-score does the source give for GGCUUACCAGGAAGCAUUUTT against YWHAB here?
**A.** The median seed-adjusted z-score was inactive: 0.579.

**Q.** For CAAUGGCAAAGGGUACGCATT against EVX2, which median seed-adjusted z-score is on record?
**A.** The median seed-adjusted z-score was inactive: 0.181.

**Q.** With GCGUGUCAGCUGUUCAUUATT against OSBPL5 as the sequence, how does the median seed-adjusted z-score read?
**A.** Its median seed-adjusted z-score is inactive: 0.638.

**Q.** With AACAAAAACUGAUGACCAATT against NARF as the sequence, how does the median seed-adjusted z-score read?
**A.** Its median seed-adjusted z-score is inactive: -0.346.

**Q.** For CCAUCUCACUGCAAUGUUUTT against RPP30, which median seed-adjusted z-score is on record?
**A.** Its median seed-adjusted z-score is inactive: -0.656.

**Q.** For GCACCUGCACAUUUAAGAATT against TRIM22, which median seed-adjusted z-score is on record?
**A.** The median seed-adjusted z-score was inactive: 0.363.

**Q.** Which median seed-adjusted z-score does the source give for GAAUCUCUGUAGCCGAUGATT against CPA1 here?
**A.** The median seed-adjusted z-score was inactive: -0.187.

**Q.** Which median seed-adjusted z-score does the source give for CCAAGGACGUGGGCAACAUTT against RABIF here?
**A.** The median seed-adjusted z-score was inactive: 0.

**Q.** For CAUUCUCUAUGACAAGUUATT against CCT7, which median seed-adjusted z-score is on record?
**A.** The median seed-adjusted z-score was inactive: -0.246.

**Q.** With AGAUUACCAGCAACAUGUUTT against PRSS1 as the sequence, how does the median seed-adjusted z-score read?
**A.** The median seed-adjusted z-score was inactive: -0.0208.

**Q.** Which median seed-adjusted z-score does the source give for AGAUGCACGAAGAAGCUUATT against ZNF99 here?
**A.** Its median seed-adjusted z-score is inactive: 0.0778.

**Q.** Which median seed-adjusted z-score does the source give for GCAUCUGUCUUACCAGAAUTT against E2F7 here?
**A.** The median seed-adjusted z-score was inactive: -0.0972.

**Q.** With GAGUCAGAGUUGGUAGAAATT against FPGT as the sequence, how does the median seed-adjusted z-score read?
**A.** The median seed-adjusted z-score was inactive: 0.36.

**Q.** Which median seed-adjusted z-score does the source give for GGACCGGAGCAGUAUAGAATT against TRIM37 here?
**A.** Its median seed-adjusted z-score is inactive: -0.108.

**Q.** Which median seed-adjusted z-score does the source give for GGCUUAUACAAUGUCAACATT against HOXA7 here?
**A.** The median seed-adjusted z-score was inactive: -0.129.

**Q.** Which median seed-adjusted z-score does the source give for CCAUCAGUGUGGAUCUGGATT against TBC1D1 here?
**A.** The median seed-adjusted z-score was inactive: -0.359.

**Q.** Which median seed-adjusted z-score does the source give for AUUAACAUGUGAUACCUUUTT against LILRA1 here?
**A.** The median seed-adjusted z-score was inactive: -0.231.

**Q.** For CAACACCCAUGAGAACUAATT against MGC17403, which median seed-adjusted z-score is on record?
**A.** The median seed-adjusted z-score was inactive: 0.204.

**Q.** With GUACGUGUGCGAAACCGAATT against TFAP2A as the sequence, how does the median seed-adjusted z-score read?
**A.** Its median seed-adjusted z-score is inactive: -0.384.

**Q.** Which median seed-adjusted z-score does the source give for GCAUGUCUUUUGACGUGAATT against ERCC5 here?
**A.** The median seed-adjusted z-score was inactive: -0.0811.

**Q.** Which median seed-adjusted z-score does the source give for CGCUAAAGCUGCACACUGATT against TRAF3 here?
**A.** The median seed-adjusted z-score was inactive: 0.731.

**Q.** Which median seed-adjusted z-score does the source give for GUGAUUAUAUGGUGAUAUATT against ADRA2B here?
**A.** The median seed-adjusted z-score was inactive: 0.00853.

**Q.** With GGAGUAACCUGGAUGAGGATT against C3 as the sequence, how does the median seed-adjusted z-score read?
**A.** Its median seed-adjusted z-score is inactive: 0.0281.

**Q.** With CAGUCUUGCUGCUAUCUAUTT against VIL1 as the sequence, how does the median seed-adjusted z-score read?
**A.** Its median seed-adjusted z-score is inactive: 0.368.

**Q.** Which median seed-adjusted z-score does the source give for GCAUUGCAGGUGUGGACAATT against RAPSN here?
**A.** The median seed-adjusted z-score was inactive: 0.143.

**Q.** With GCCUGAAAGUCUCACCCUUTT against KHK as the sequence, how does the median seed-adjusted z-score read?
**A.** Its median seed-adjusted z-score is inactive: 0.

**Q.** Which median seed-adjusted z-score does the source give for GAACUGUCCCAGACCUUAATT against PRDM10 here?
**A.** Its median seed-adjusted z-score is inactive: 0.344.

**Q.** Which median seed-adjusted z-score does the source give for GGAUCCAGAGCAUGAAUUATT against P2RX7 here?
**A.** The median seed-adjusted z-score was inactive: -0.527.

**Q.** With ACAGCCGCAUGAACAAGGATT against B3GNT7 as the sequence, how does the median seed-adjusted z-score read?
**A.** Its median seed-adjusted z-score is active: -1.05.

**Q.** For GCACUGAUAUCAACCCUGATT against N6AMT1, which median seed-adjusted z-score is on record?
**A.** The median seed-adjusted z-score was inactive: 0.166.

**Q.** With GCACUAAUGAAGACCCUAATT against PBK as the sequence, how does the median seed-adjusted z-score read?
**A.** Its median seed-adjusted z-score is inactive: -0.311.

**Q.** For CGAAUCAGCAGGUUCCAAATT against CHD2, which median seed-adjusted z-score is on record?
**A.** The median seed-adjusted z-score was inactive: 0.422.

**Q.** For GCACUGGUCCGCAUCAGUATT against TRIM46, which median seed-adjusted z-score is on record?
**A.** Its median seed-adjusted z-score is inactive: 0.034.

**Q.** For CGUUGGAUCAGACUCUUUUTT against SMYD5, which median seed-adjusted z-score is on record?
**A.** Its median seed-adjusted z-score is inactive: -0.217.

**Q.** Which median seed-adjusted z-score does the source give for GCAAGAAGCCGGUAGUCUATT against CTRC here?
**A.** Its median seed-adjusted z-score is inactive: -0.104.

**Q.** For GGACACUACUCUUACCGCATT against TEAD4, which median seed-adjusted z-score is on record?
**A.** The median seed-adjusted z-score was inactive: 0.0908.

**Q.** For CACCUUACCUCAAUAUCUATT against PTPDC1, which median seed-adjusted z-score is on record?
**A.** The median seed-adjusted z-score was inactive: -0.191.

**Q.** For GGUAAAGUCCAGUUCGUGATT against GRM7, which median seed-adjusted z-score is on record?
**A.** Its median seed-adjusted z-score is inactive: 0.389.

**Q.** With GCAUCGAAGGGAUCUAUAATT against CACNG4 as the sequence, how does the median seed-adjusted z-score read?
**A.** The median seed-adjusted z-score was inactive: -0.0702.

**Q.** With GUACCAGUCUAGCGCAAUATT against BMX as the sequence, how does the median seed-adjusted z-score read?
**A.** The median seed-adjusted z-score was inactive: -0.00712.

**Q.** For GGUUCACGGAGAGUCAGAATT against PER2, which median seed-adjusted z-score is on record?
**A.** The median seed-adjusted z-score was inactive: -0.113.

**Q.** Which median seed-adjusted z-score does the source give for AGAAUUUAAAGAUCCACAATT against ZIC1 here?
**A.** Its median seed-adjusted z-score is inactive: 0.162.

**Q.** Which median seed-adjusted z-score does the source give for ACAUCACCAUGACAGAUUUTT against PNMT here?
**A.** Its median seed-adjusted z-score is inactive: -0.559.

**Q.** Which median seed-adjusted z-score does the source give for CAAUGUGCGUGAGAAGUCATT against EPN2 here?
**A.** The median seed-adjusted z-score was inactive: -0.00173.

**Q.** Which median seed-adjusted z-score does the source give for GCUGCAGGUUGUAAAUAGUTT against CCNO here?
**A.** The median seed-adjusted z-score was inactive: -0.594.

**Q.** With UCCCGUUCCGUACGACUUATT against DHRS7C as the sequence, how does the median seed-adjusted z-score read?
**A.** The median seed-adjusted z-score was inactive: -0.398.

**Q.** Which median seed-adjusted z-score does the source give for GUAUAGAUCUCUAUUUCUATT against COPZ1 here?
**A.** Its median seed-adjusted z-score is active: -1.02.

**Q.** For GCAGAUUUUGAGCAACUGATT against TRIM5, which median seed-adjusted z-score is on record?
**A.** The median seed-adjusted z-score was inactive: 0.0758.

**Q.** With GAUUAAUCCUACCAUAUGATT against ARID5B as the sequence, how does the median seed-adjusted z-score read?
**A.** Its median seed-adjusted z-score is inactive: 0.

**Q.** For GAAAGGAGAUUCCAACCUATT against PCDHGA3, which median seed-adjusted z-score is on record?
**A.** The median seed-adjusted z-score was inactive: 0.27.

**Q.** With GUGGACAAAUUGACCUUAATT against OAT as the sequence, how does the median seed-adjusted z-score read?
**A.** Its median seed-adjusted z-score is inactive: -0.0231.

**Q.** Which median seed-adjusted z-score does the source give for GAUGAAAUCUACUCUCGAATT against ZNF615 here?
**A.** Its median seed-adjusted z-score is inactive: 0.0912.
